Compound in the assay: Cc1nc(Nc2ncc(C(=O)Nc3c(C)cccc3Cl)s2)cc(N2CCN(CCO)CC2)n1 [dasatinib]
The assay is described as follows: log2 fold change of tryptic peptide abundance, ligand vs vehicle (limited proteolysis) (log2 ratio); higher = more trypsin-susceptible (destabilized). The settings on record: ligand concentration: 5 uM; sample: K562 cleared lysate.

Amino acid sequences for entries named in this document (tags omitted). A change or cut given only in a name is not applied to a line headed by its entry.
UniProt Q96QG7: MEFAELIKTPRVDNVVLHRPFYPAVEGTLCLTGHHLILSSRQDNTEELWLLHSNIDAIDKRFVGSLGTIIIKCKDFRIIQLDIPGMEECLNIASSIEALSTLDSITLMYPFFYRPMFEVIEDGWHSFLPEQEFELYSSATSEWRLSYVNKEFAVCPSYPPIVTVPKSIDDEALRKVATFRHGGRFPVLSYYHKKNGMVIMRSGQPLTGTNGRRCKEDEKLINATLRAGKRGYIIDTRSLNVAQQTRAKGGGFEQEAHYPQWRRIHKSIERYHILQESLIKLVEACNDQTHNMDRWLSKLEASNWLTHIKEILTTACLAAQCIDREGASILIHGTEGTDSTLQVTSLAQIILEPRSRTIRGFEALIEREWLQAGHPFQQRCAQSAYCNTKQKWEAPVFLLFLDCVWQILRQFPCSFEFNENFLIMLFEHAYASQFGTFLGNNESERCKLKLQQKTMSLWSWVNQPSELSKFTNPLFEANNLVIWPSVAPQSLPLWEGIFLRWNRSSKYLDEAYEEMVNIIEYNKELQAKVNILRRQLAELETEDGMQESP
UniProt Q96NB1: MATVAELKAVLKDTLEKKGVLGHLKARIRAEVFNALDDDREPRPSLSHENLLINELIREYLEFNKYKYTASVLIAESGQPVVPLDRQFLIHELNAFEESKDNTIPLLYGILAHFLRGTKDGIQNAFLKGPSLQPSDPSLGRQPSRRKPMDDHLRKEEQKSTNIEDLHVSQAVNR
UniProt Q96MG7: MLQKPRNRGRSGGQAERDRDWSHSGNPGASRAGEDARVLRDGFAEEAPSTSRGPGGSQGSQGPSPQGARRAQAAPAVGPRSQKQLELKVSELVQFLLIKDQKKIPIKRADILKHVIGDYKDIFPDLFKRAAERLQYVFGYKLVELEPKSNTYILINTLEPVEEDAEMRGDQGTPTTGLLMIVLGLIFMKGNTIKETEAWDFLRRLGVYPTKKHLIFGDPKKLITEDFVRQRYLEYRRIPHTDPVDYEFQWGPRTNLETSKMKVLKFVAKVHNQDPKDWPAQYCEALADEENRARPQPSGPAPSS
UniProt Q96HE7: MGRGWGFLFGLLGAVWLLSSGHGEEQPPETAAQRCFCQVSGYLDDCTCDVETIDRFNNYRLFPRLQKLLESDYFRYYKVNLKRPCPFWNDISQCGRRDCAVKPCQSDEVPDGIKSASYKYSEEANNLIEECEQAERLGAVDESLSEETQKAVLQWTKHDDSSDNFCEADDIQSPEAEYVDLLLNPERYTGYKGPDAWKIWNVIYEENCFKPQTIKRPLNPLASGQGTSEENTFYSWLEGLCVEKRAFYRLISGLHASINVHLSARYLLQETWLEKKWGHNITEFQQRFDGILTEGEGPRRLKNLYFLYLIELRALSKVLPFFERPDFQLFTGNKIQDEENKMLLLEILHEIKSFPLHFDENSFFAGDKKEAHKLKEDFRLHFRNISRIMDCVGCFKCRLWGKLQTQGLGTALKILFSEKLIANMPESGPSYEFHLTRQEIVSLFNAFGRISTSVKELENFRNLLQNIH
UniProt Q96FZ7: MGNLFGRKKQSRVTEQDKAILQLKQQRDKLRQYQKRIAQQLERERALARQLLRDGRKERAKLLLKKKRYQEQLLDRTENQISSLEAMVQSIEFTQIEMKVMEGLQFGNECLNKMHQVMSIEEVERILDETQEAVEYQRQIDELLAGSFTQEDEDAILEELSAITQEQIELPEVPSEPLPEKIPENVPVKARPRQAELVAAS
UniProt Q96QE3: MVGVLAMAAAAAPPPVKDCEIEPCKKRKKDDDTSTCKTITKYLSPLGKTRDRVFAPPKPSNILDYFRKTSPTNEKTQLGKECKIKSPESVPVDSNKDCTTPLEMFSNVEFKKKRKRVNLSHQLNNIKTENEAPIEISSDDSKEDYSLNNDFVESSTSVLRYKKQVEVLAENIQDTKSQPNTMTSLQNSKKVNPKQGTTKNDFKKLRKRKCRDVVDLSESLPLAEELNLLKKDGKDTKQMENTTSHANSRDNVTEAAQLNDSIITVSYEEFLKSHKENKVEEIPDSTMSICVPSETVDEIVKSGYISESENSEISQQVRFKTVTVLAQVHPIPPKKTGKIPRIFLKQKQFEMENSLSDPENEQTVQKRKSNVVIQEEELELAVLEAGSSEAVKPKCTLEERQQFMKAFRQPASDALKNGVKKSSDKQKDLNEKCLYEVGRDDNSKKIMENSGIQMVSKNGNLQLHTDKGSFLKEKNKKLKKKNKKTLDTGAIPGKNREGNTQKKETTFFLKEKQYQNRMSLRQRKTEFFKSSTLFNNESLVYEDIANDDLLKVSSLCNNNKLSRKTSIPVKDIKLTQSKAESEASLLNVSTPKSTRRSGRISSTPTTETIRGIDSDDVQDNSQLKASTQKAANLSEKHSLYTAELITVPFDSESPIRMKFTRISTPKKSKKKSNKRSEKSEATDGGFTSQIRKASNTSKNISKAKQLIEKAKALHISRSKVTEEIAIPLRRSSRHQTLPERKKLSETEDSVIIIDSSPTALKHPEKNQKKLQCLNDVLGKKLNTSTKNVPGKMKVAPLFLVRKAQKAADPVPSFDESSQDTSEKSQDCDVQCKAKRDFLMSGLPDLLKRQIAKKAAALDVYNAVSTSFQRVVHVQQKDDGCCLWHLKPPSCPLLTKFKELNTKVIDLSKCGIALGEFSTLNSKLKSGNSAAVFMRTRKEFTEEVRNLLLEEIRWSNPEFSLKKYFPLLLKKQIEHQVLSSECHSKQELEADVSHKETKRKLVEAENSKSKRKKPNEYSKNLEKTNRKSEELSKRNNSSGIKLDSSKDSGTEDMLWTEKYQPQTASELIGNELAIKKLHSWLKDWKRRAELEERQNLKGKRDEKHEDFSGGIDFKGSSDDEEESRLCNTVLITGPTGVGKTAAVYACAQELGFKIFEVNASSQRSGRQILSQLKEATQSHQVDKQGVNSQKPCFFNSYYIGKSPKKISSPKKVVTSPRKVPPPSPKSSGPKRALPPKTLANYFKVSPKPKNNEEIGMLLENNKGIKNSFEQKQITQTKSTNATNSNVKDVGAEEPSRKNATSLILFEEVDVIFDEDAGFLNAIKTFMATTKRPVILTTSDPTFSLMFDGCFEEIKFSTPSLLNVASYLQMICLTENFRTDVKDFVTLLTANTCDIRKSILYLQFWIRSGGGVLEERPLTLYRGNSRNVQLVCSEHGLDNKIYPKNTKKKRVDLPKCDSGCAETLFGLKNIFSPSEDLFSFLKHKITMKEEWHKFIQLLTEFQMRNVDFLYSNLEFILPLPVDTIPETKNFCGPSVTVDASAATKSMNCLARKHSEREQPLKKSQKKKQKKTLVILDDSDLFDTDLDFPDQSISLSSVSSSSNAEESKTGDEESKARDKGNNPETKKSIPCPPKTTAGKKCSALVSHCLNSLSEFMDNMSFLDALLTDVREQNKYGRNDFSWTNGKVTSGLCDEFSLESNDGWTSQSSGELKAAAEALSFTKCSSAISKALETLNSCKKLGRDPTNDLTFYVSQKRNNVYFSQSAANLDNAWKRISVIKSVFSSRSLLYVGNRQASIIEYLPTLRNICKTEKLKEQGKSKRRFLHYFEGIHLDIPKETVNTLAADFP
UniProt Q96MD2: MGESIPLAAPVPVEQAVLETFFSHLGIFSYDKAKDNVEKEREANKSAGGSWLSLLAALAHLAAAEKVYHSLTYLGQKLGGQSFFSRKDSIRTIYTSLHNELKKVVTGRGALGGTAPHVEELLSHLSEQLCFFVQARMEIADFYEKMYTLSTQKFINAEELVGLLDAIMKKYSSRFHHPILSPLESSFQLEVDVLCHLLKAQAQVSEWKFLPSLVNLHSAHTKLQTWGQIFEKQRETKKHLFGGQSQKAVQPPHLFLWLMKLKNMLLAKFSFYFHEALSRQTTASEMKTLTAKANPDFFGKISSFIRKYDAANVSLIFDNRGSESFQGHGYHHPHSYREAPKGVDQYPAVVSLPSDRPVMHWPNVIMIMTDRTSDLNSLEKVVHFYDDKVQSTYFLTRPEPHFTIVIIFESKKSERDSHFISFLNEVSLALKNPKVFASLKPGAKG
UniProt Q96P50: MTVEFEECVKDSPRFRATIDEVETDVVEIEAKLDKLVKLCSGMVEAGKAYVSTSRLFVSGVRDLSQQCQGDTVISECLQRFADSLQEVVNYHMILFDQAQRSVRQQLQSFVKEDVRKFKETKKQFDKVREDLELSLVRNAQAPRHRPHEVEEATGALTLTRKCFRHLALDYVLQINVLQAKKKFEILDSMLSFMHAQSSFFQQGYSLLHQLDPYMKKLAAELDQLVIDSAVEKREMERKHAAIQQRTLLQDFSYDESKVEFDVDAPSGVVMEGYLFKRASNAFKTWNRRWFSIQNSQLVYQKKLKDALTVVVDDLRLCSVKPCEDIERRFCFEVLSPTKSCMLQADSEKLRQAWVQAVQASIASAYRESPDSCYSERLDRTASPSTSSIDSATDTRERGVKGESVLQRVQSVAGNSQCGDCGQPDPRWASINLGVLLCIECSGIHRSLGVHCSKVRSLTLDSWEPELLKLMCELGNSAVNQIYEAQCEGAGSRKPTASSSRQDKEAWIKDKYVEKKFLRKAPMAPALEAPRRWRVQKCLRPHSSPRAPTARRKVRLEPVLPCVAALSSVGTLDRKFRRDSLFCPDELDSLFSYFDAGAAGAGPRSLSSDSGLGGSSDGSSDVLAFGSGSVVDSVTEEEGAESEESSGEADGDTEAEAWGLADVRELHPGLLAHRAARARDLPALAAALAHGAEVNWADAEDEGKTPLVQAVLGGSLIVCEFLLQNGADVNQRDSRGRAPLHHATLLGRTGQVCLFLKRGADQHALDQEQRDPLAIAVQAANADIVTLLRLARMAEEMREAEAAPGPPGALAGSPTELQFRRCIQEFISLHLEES
UniProt Q96PY5, whole entry: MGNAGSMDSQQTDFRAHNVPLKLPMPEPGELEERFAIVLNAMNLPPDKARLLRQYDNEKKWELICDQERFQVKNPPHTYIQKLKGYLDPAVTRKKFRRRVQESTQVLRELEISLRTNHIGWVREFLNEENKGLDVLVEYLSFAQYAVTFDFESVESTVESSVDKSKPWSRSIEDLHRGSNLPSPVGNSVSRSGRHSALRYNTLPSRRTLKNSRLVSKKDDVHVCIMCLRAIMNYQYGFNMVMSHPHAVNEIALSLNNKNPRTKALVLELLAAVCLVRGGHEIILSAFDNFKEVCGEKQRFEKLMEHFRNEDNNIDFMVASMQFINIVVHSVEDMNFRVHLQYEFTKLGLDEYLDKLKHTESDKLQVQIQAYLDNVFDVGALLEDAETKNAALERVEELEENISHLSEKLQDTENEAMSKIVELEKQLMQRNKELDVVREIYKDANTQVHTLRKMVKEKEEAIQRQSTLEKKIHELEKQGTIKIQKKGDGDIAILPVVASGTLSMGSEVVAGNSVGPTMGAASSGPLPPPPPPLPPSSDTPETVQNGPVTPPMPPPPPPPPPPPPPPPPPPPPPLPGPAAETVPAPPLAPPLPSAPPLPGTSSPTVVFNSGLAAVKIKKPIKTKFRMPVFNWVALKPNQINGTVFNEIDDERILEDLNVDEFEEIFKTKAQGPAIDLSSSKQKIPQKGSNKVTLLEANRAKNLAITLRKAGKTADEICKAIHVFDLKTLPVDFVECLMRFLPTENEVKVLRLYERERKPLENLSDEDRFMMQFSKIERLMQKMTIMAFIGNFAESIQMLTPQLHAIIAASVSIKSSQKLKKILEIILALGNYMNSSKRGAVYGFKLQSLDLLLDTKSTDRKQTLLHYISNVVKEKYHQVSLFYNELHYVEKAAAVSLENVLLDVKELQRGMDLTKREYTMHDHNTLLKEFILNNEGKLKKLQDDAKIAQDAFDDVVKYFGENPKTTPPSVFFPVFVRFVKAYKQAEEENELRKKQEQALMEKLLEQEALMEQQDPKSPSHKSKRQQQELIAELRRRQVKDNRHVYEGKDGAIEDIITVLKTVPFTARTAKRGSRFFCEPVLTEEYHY
UniProt Q96HN2, whole entry: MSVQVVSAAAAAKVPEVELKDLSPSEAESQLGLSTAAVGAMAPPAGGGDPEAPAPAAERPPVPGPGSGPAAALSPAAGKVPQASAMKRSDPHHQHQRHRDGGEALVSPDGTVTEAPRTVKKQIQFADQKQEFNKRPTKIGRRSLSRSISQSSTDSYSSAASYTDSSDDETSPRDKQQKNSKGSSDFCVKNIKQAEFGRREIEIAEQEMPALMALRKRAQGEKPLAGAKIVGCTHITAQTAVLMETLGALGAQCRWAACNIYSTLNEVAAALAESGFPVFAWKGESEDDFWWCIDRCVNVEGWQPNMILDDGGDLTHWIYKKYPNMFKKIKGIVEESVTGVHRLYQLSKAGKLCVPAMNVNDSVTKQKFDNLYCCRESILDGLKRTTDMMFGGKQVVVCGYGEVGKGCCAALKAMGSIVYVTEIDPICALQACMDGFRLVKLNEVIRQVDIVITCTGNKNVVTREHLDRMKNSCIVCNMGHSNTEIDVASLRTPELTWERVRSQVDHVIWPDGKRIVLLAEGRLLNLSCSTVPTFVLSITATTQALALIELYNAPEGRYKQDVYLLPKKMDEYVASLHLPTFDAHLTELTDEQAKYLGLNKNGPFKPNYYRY

The other results are listed elsewhere or left out. Small differences around the control level are noise.

For the target “MARK4 (peptide sequence: NSDTHGTLGSGR, peptide start residue: 14) (UniProt Q96L34)”, the log2 fold change is -0.775.

On to “PUS7 (peptide sequence: AITVQEIAVLK, peptide start residue: 297) (UniProt Q96PZ0)”, for which the log2 fold change was -0.351. To “C8orf37 (peptide sequence: FCTPDLLR, peptide start residue: 16) (UniProt Q96NL8)” belongs 0.111; to “TRPM7 (peptide sequence: ATEGDNTEFGAFVGHR, peptide start residue: 1429) (UniProt Q96QT4)”, -0.291.

Regarding “PRIMPOL (peptide sequence: DNIHVGNFLR, peptide start residue: 181) (UniProt Q96LW4)”, the log2 fold change was -0.291. On to “MTMR9 (peptide sequence: GGGFEQEAHYPQWR, peptide start residue: 249) (UniProt Q96QG7)”, for which the log2 fold change is -0.639.

In the case of “CEP63 (peptide sequence: FLEEEELR, peptide start residue: 666) (UniProt Q96MT8)”, the log2 fold change is 0.467. Next, “ALKBH3 (peptide sequence: ITMEPNPHWHPVLR, peptide start residue: 146) (UniProt Q96Q83)”: 0.329; “SEC22A (peptide sequence: INLSDMQTEIK, peptide start residue: 136) (UniProt Q96IW7)”: -0.202. To “AGAP3 (peptide sequence: AAECKVDSIGSGR, peptide start residue: 353) (UniProt Q96P47)” belongs 0.441; to “UniProt Q96JG6 (peptide sequence: SEVLQESIRK, peptide start residue: 434)”, 0.806; to “L3MBTL3 (peptide sequence: DQHADDVKEDFEER, peptide start residue: 630) (UniProt Q96JM7)”, -0.894. Next, “UniProt Q96NB1 (peptide sequence: RKPMDDHLR, peptide start residue: 146)”: -0.499. In the case of “TRIB3 (peptide sequence: QMATALAHCHQHGLVLR, peptide start residue: 165) (UniProt Q96RU7)”, the log2 fold change worked out at 0.402.

As for “YTHDC1 (peptide sequence: GISPIVFDR, peptide start residue: 306) (UniProt Q96MU7)”, the log2 fold change is -0.694. To “PBK (peptide sequence: TPSKLSEK, peptide start residue: 9) (UniProt Q96KB5)” belongs -0.631; to “SMG1 (peptide sequence: QVLEEIFFLKR, peptide start residue: 3015) (UniProt Q96Q15)”, -0.706; to “UniProt Q96MG7 (peptide sequence: VLRDGFAEEAPSTSR, peptide start residue: 38)”, -0.111. To “UniProt Q96HE7 (peptide sequence: FDGILTEGEGPRR, peptide start residue: 288)” belongs -0.192; to “CHMP6 (peptide sequence: VTEQDKAILQLK, peptide start residue: 13) (UniProt Q96FZ7)”, -0.417; to “ATAD5 (peptide sequence: FLHYFEGIHLDIPK, peptide start residue: 1820) (UniProt Q96QE3)”, -1.25.

For “ZNF512B (peptide sequence: KVPAAPITVSK, peptide start residue: 472) (UniProt Q96KM6)”, the log2 fold change was -0.461. Turning to “BICD1 (peptide sequence: LTEHVNAMR, peptide start residue: 371) (UniProt Q96G01)”, the log2 fold change was 0.374. To “VPS39 (peptide sequence: QQQIHHIK, peptide start residue: 342) (UniProt Q96JC1)” belongs 0.943. Next, “UniProt Q96MD2 (peptide sequence: HLFGGQSQK, peptide start residue: 239)”: -0.214; “UniProt Q96JG9 (peptide sequence: GAPPHTNPDR, peptide start residue: 2284)”: 0.208.

With “REXO5 (peptide sequence: TMEGPLPSNAK, peptide start residue: 156) (UniProt Q96IC2)”, the log2 fold change is -0.119. Next, “UniProt Q96L50 (peptide sequence: GKGVRAVLSLCQQTSR, peptide start residue: 23)”: -0.321; “ACAP3 (peptide sequence: SLGVHCSK, peptide start residue: 447) (UniProt Q96P50)”: -0.239; “MARS2 (peptide sequence: FSTGTDEHGLK, peptide start residue: 88) (UniProt Q96GW9)”: -0.151.

For the target “C5orf34 (peptide sequence: GKVVSVLPR, peptide start residue: 290) (UniProt Q96MH7)”, the log2 fold change was -0.598. To “FMNL2 (peptide sequence: DDVHVCIMCLR, peptide start residue: 225) (UniProt Q96PY5)” belongs 0.247; to “SCLY (peptide sequence: AAELVTQNCEAYEAHMR, peptide start residue: 308) (UniProt Q96I15)”, -0.564; to “AHCYL2 (peptide sequence: RSDPHHQHQR, peptide start residue: 88) (UniProt Q96HN2)”, -0.53.

With “MAGI1 (peptide sequence: SSPHGEKR, peptide start residue: 1282) (UniProt Q96QZ7)”, the log2 fold change is -0.484. To “NEK1 (peptide sequence: YGIPLAYK, peptide start residue: 315) (UniProt Q96PY6)” belongs 0.502; to “MASTL (peptide sequence: NFELVDSSPCK, peptide start residue: 446) (UniProt Q96GX5)”, 0.778.

The values above are taken from the supplement of paper PMC12819154, “High-throughput peptide-centric local stability assay extends protein–ligand identification to membrane proteins, tissues and bacteria” (Nature Structural & Molecular Biology, 2025).
